Data reported in PMC2265411.
No constants are given. Whether binding was seen depends on the method and setting. For some assays here: Binding seen in cells or lysates may run through a third protein. Some entries that bind do so weakly or less than the wild type. For some assays here: Tags and fused reporters may be left off the sequences shown.

Chains of the proteins cited; added tags and fusions are not shown.
UniProt Q15836: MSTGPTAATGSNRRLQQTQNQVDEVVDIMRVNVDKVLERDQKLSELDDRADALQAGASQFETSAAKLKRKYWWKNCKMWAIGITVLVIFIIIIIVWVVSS
UniProt P51809: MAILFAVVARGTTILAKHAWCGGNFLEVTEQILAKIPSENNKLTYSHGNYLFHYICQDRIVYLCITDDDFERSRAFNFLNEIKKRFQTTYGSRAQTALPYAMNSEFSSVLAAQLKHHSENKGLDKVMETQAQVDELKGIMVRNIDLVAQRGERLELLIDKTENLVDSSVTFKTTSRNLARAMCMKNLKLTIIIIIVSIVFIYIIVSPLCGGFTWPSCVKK
UniProt P0CI27: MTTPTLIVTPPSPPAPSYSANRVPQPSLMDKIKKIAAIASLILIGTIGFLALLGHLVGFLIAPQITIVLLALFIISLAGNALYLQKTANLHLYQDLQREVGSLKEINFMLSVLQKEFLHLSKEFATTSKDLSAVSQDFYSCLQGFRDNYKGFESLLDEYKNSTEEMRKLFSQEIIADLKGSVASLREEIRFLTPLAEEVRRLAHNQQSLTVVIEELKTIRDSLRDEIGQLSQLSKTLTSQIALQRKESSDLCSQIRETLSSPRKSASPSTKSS

How the values were obtained:
[1] = molecular target: GST-Vamp3 purified and reconstituted into liposomes (UniProt Q15836); experiment: pull-down; purified GST-Vamp and purified IncA-His in two populations of liposomes, mixed 16 hrs at 4°C, dissolved in 2.5% n-dodecyl-maltoside, diluted in buffer A (100 mM KCl, 25 mM HEPES, 10% glycerol, 1% octyl-β-D-glucopyranoside), glutathione agarose; SDS-PAGE, Coomassie; both purified
[2] = molecular target: T1, GST-Vamp8 purified and reconstituted into liposomes (UniProt Q9BV40); experiment: as above
T1 sequence: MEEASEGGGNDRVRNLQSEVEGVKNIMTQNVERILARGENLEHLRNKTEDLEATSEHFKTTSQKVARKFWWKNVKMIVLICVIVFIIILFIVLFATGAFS

GFP-Vamp3 = GFP-Vamp3 (UniProt Q15836); experiment: co-IP; HeLa cells co-transfected with the inclusion protein and a GFP-SNARE, lysed 24 h later in 50 mM Tris, 150 mM NaCl, 1% Triton X-100, 10 mM EDTA, pH 7.5; GFP-tagged proteins precipitated with anti-GFP monoclonal antibodies; blots with anti-IncA or anti-His
GFP-Vamp7 = GFP-Vamp7 (UniProt P51809); experiment: as above
GFP-Vamp8 = molecular target: T2, GFP-Vamp8 (UniProt Q9BV40); experiment: as above
T2 sequence: T1 sequence

## Full-length IncA-His purified from E. coli and reconstituted into liposomes (from UniProt P0CI27 1-273)
[1]
  binding: binds
[2]
  binding: binds

## C. trachomatis IncA with a carboxyterminal His tag, expressed in HeLa cells (from UniProt P0CI27 1-273)
GFP-Vamp3
  binding: binds
GFP-Vamp7
  binding: binds
GFP-Vamp8
  binding: binds
